# ± gives the standard deviation. The list shows a part of the results, in another mix than the full data. The uncertainty is large for many entries.
# Tested on: MILI (PIWIL2) piRISC loaded with piRNA #1 (26 nt)
# Test: pre-steady-state target cleavage rate (min^-1); higher = faster piRNA-guided slicing of the target
# Conditions: guide: piRNA #1 5'p-UGAGGUAGUAGGUUGUAUAGUAUCCA; auxiliary factor: 500 nM mouse GTSF1
# Procedure, shortened: (§1)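 Cleave-'n-Seq used a transcribed, DNA-blocked target RNA library at 0.1 nM and active affinity-purified piRISC with one synthetic guide at 1 nM, with or without 500 nM GTSF1 partner protein, in HEPES–potassium acetate buffer at 33 °C for 0–8 or 0–960 min. Uncleaved targets were sequenced and normalised to depth and to weakly complementary targets, and three trials were pooled with k3 capped at 0.0001 min^-1. The pre-steady-state cleavage rate was estimated by a burst-and-steady-state fit.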
row,Sequence,pre-steady-state target cleavage rate
1,GGAGACCAUACUAUACAACCUAGUACCUGA,0.00189 ± 0.0048
2,GGAGACGAUACUAUACAACCUACUUGGUCA,0.00122 ± 0.0069
3,GGAGUGGAUACAAUACAUCCUACUACCUCA,0.256 ± 0.016
4,GGAGACCUAUCUCAUACAACCUACUACCUCA,0.0664 ± 0.01
5,GGAGACCUUACUAUACAACCUAGUAGCUCA,0.000793 ± 0.0079
6,GGAGACCUAUGAUUUGAACCUACUACCUCA,0.000307 ± 0.01
7,GGAGAGGAUACUAAACAUCCUACUACCUCA,0.276 ± 0.022
8,GGAGAGGAUAGUAUAGAACCUACUACCUCA,0.0708 ± 0.012
9,GGAGUGGAUACUAUACAACCUAGAUCCUCA,0.000386 ± 0.0052
10,GGAGACCUAUGAUAUGACCCUACUACCUCA,0.000203 ± 0.014
11,GGAGAGGAUACUAUACAACCAUGAUGGAGA [g11:g25:cont:t1A],0.00109 ± 0.0056
12,GGAGACCUAUGAUAUCAACCUACUAUCUCA,0.00057 ± 0.0076
13,GGAGUGGAUACUAAAGAACCUACUACCUCA,0.167 ± 0.011
14,GGAGACCUAUGAUAACAACCAUGUACCUCA,0.000499 ± 0.0098
15,GGAGACCUAUGAUAUGUUCCCUACUACCUCA,0.000289 ± 0.0085
16,GGAGACGAUACUAUACAACCUAACUACCUCA,0.0232 ± 0.0036
17,GGAGACGAUACUAAACAAGCUACUACCUCA,0.268 ± 0.016
18,GGAGACCUUAGUAUACAAGCUACUACCUCA,0.174 ± 0.012
19,GGAGACCAUACUAUACAACCUUGUACCUCA,0.000848 ± 0.0068
20,GGAGACGAUACUAUAGAACCAACUACCUCA,0.00326 ± 0.0028

row,Sequence,pre-steady-state target cleavage rate
1,GGAGACCAUACUAUACAACCUACUUCGUCA,0.112 ± 0.029
2,GGAGACCUAUGAUAAGAUCCUACUACCUCA,0.000194 ± 0.013
3,GGAGACCUAUGAUAUGAACCUACUACCUCA,0.000409 ± 0.0086
4,GGAGACCUAUGAUUAGAACGUACUACCUCA,0.000267 ± 0.011
5,GGAGACCUAACUAUACAACCUUCAACCUCA,0.00258 ± 0.005
6,GGAGACGAUAGUAUACAAGCUACUACCUCA,0.176 ± 0.016
7,GGAGACCUUACUAUACAACGUUCUACCUCA,0.00546 ± 0.0015
8,GGAGACCUAUCUAUACAACCUACUAGGAGA [g6:g20:cont:t1A],0.00261 ± 0.004
9,GGAGACCUAUGAUUACAACCAUGAUGGAGA [g11:g17:cont:t1A],0.000175 ± 0.017
10,GGAGACCAUACUAUUCAACCUAGUACCUCA,0.0559 ± 0.011
11,GGAGAGGAUACUAUACGACCUACUACCUCA,0.121 ± 0.0093
12,GGAGUGGAUACUACUACAACCUACUACCUCA,0.193 ± 0.012
13,GGAGACCAUACUAUAGAACCUACUACGUCA,0.0697 ± 0.013
14,GGAGACCUAUCUAUACAAGCUACUACCACA,0.278 ± 0.019
15,GGAGUCGAUACUAUACAACCUUCUACCUCA,0.00775 ± 0.0022
16,GGAGACCAUAGUAUACAACCUACAACCUCA,0.129 ± 0.017
17,GGAGUGGAUACUAUAAACCUACUACCUCA,0.0206 ± 0.0043
18,GGAGAGGAUACUAUUCAACCUAGUACCUCA,0.00322 ± 0.0038
19,GGAGAGGAUACUAUAGAACCUAGUACCUCA,0.000843 ± 0.0064
20,GGAGACCUAUGAUAUGUUGGUACUAACCUCA,0.00011 ± 0.048

# Tested on: EfPiwi piRISC loaded with piRNA #1 (26 nt)
# Test: pre-steady-state target cleavage rate (min^-1); guide: piRNA #1 5'p-UGAGGUAGUAGGUUGUAUAGUAUCCA; MIWI and MILI are mouse PIWI proteins and EfPiwi is from a freshwater sponge; tags in brackets are library labels; higher = faster piRNA-guided slicing of the target
# Conditions: auxiliary factor: 500 nM Ephydatia muelleri Gtsf1
# Procedure, shortened: as §1
row,Sequence,pre-steady-state target cleavage rate
1,GGAGACCAUACUAUACAACCUAGUACCUGA,0.00278 ± 0.0021
2,GGAGACGAUACUAUACAACCUACUUGGUCA,0.00312 ± 0.0021
3,GGAGUGGAUACAAUACAUCCUACUACCUCA,0.00574 ± 0.0025
4,GGAGACCUAUCUCAUACAACCUACUACCUCA,0.00258 ± 0.0049
5,GGAGACCUUACUAUACAACCUAGUAGCUCA,0.00206 ± 0.0027
6,GGAGACCUAUGAUUUGAACCUACUACCUCA,0.000256 ± 0.0097
7,GGAGAGGAUACUAAACAUCCUACUACCUCA,0.00524 ± 0.0024
8,GGAGAGGAUAGUAUAGAACCUACUACCUCA,0.00124 ± 0.0042
9,GGAGUGGAUACUAUACAACCUAGAUCCUCA,0.00311 ± 0.0016
10,GGAGACCUAUGAUAUGACCCUACUACCUCA,0.000585 ± 0.011
11,GGAGAGGAUACUAUACAACCAUGAUGGAGA [g11:g25:cont:t1A],0.000805 ± 0.0046
12,GGAGACCUAUGAUAUCAACCUACUAUCUCA,0.000223 ± 0.013
13,GGAGUGGAUACUAAAGAACCUACUACCUCA,0.000433 ± 0.006
14,GGAGACCUAUGAUAACAACCAUGUACCUCA,0.000267 ± 0.011
15,GGAGACCUAUGAUAUGUUCCCUACUACCUCA,0.000233 ± 0.0084
16,GGAGACGAUACUAUACAACCUAACUACCUCA,0.0045 ± 0.0021
17,GGAGACGAUACUAAACAAGCUACUACCUCA,0.00331 ± 0.0031
18,GGAGACCUUAGUAUACAAGCUACUACCUCA,0.00181 ± 0.0039
19,GGAGACCAUACUAUACAACCUUGUACCUCA,0.00364 ± 0.0051
20,GGAGACGAUACUAUAGAACCAACUACCUCA,0.00377 ± 0.002

row,Sequence,pre-steady-state target cleavage rate
1,GGAGACCAUACUAUACAACCUACUUCGUCA,0.00491 ± 0.0039
2,GGAGACCUAUGAUAAGAUCCUACUACCUCA,0.000331 ± 0.0063
3,GGAGACCUAUGAUAUGAACCUACUACCUCA,0.0007 ± 0.007
4,GGAGACCUAUGAUUAGAACGUACUACCUCA,0.000561 ± 0.0096
5,GGAGACCUAACUAUACAACCUUCAACCUCA,0.000905 ± 0.0071
6,GGAGACGAUAGUAUACAAGCUACUACCUCA,0.0022 ± 0.0027
7,GGAGACCUUACUAUACAACGUUCUACCUCA,0.000503 ± 0.005
8,GGAGACCUAUCUAUACAACCUACUAGGAGA [g6:g20:cont:t1A],0.00306 ± 0.0037
9,GGAGACCUAUGAUUACAACCAUGAUGGAGA [g11:g17:cont:t1A],0.000544 ± 0.011
10,GGAGACCAUACUAUUCAACCUAGUACCUCA,0.00166 ± 0.0022
11,GGAGAGGAUACUAUACGACCUACUACCUCA,0.117 ± 0.05
12,GGAGUGGAUACUACUACAACCUACUACCUCA,0.114 ± 0.038
13,GGAGACCAUACUAUAGAACCUACUACGUCA,0.00374 ± 0.0034
14,GGAGACCUAUCUAUACAAGCUACUACCACA,0.00241 ± 0.0041
15,GGAGUCGAUACUAUACAACCUUCUACCUCA,0.00622 ± 0.0028
16,GGAGACCAUAGUAUACAACCUACAACCUCA,0.00172 ± 0.0038
17,GGAGUGGAUACUAUAAACCUACUACCUCA,0.00225 ± 0.0037
18,GGAGAGGAUACUAUUCAACCUAGUACCUCA,0.00256 ± 0.0017
19,GGAGAGGAUACUAUAGAACCUAGUACCUCA,0.00135 ± 0.0026
20,GGAGACCUAUGAUAUGUUGGUACUAACCUCA,0.000115 ± 0.028
